Measurements taken from PubChem BioAssay AID2685 (National Center for Advancing Translational Sciences (NCATS), 2010).
This is one part of the list. Shown are side measurements of this screen, not its main read-out; they come without a call. Compounds called inactive in the main read-out are mostly missing here. Words in brackets tell the shape of the fitted curve; partial curves, single points and poor fits give uncertain potencies.

Assay: qHTS Assay for Lipid Storage Modulators in Drosophila S3 Cells;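 for cell number change: cells counted by Cell Tracker Red CMTPX staining in the red channel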
Conditions: BODIPY lipid droplet fluorescence, 18-24 h; for cell number change: measured here: cell count max response, cells fed with added oleic acid
Method in brief: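 Drosophila S3 cells loaded with oleic acid (400 uM, as added) and compounds at several concentrations; lipid droplets imaged by 488-nm laser-scanning cytometry, 500–530 nm intensity and object ratio to cell channel. Percent activity normalized to 20 uM Triacsin C.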

[1] = measured here: lipid fluorescence (Fed channel) AC50, cells fed with added oleic acid
[2] = measured here: cell number channel AC50, cells fed with added oleic acid

O=C(O)c1ccc(-c2nc3scc(-c4ccccc4)c3c(=O)[nH]2)cc1
AC50 [1]: 5.8 µM [falling, single point]

O=C(COC(=O)c1ccc(CO)cc1)NCc1cccs1
cell number change: -3.34% | AC50 [1]: 0.731 µM [rising, full curve]

O=[N+]([O-])c1ccc(/C=N/n2c(-c3ccccc3)n[nH]c2=S)cc1
cell number change: -21.8% | AC50 [1]: 11.6 µM [falling, partial curve, poor fit]

C/C(=N/NC(=O)c1cccc(N2CCCC2=O)c1)c1ccc(Br)cc1
cell number change: 12.2%

Cc1ccc(C(C)C)c(OCc2nn(CC(=O)c3ccc(OC(F)F)cc3)c3[n+]2CCCCC3)c1
cell number change: -15.4%

CC1CC(C)CN(S(=O)(=O)c2cc(C(=O)O)c(Cl)s2)C1 (configuration not stated)
AC50 [1]: 0.0164 µM [falling, full curve, poor fit]

CCOC(=O)N/N=C\c1sccc1C
cell number change: 15.4% | AC50 [1]: 14.6 µM [rising, partial curve]

Cc1ccc(NC2=CC(=O)CC(c3ccccc3)C2)cc1 (configuration not stated)
cell number change: 3.05% | AC50 [1]: 5.17 µM [rising, partial curve]

COc1ccc(C2=NOC(C(=O)Nc3ccc(C)cc3)C2)cc1OC (configuration not stated)
AC50 [2]: 1.64 µM [rising, partial curve] | AC50 [1]: 0.0291 µM [rising, full curve, poor fit]

COc1cc(NCc2ccccc2O)c2ncccc2c1
cell number change: 8.19% | AC50 [1]: 0.58 µM [falling, single point]

CC1=C(C)C(=O)N(c2ccccn2)C1=O
cell number change: -0.612%

Cc1ccc(NC(=O)CSc2nnnn2C2CCCC2)cc1S(=O)(=O)N1CCOCC1
cell number change: 22.8% | AC50 [1]: 2.91 µM [rising, full curve]

CCSc1nc(O)c(C2OC(=O)c3c2ccc(OC)c3OC)c(=O)n1-c1ccccc1 (configuration not stated)
cell number change: -51.9% | AC50 [2]: 8.2 µM [falling, partial curve] | AC50 [1]: 7.31 µM [falling, partial curve]

O=C(CSc1nc(Nc2ccccc2)nc(N2CCOCC2)n1)Nc1ccccc1Cl
cell number change: -8.2% | AC50 [1]: 1.64 µM [rising, partial curve]

COC(=O)C1C(C(=O)OC)C1(c1ccccc1)c1ccccc1 (configuration not stated)
cell number change: 24.3%

CC(=O)N(c1ccccc1)c1nc(/C=C/C(=O)O)cs1
AC50 [2]: 0.00517 µM [falling, full curve, poor fit]

COc1ccc(/C=C/C(=O)NCCC(=O)N2CCCN(C)CC2)cc1
cell number change: 8.98%

Cc1ccc(C(=O)NCCCNC(=O)Cc2ccccc2)cn1
cell number change: 10.9%

COc1ccccc1NC(=O)/C(C#N)=C/c1ccncc1
AC50 [1]: 0.92 µM [falling, full curve]

CCc1nnc(NC(=O)CCC(=O)N2CCN(C3c4ccccc4-c4ccccc43)CC2)s1
AC50 [1]: 8.2 µM [rising, partial curve]

Cc1nnc(SC(C)C(=O)NCC2CCCO2)s1 (configuration not stated)
cell number change: -6.02%

CCc1ccccc1NC(=O)Nc1c(C)n(C)n(-c2ccccc2)c1=O
cell number change: -1.16% | AC50 [1]: 7.31 µM [rising, single point]

Cc1nn(-c2ccccc2)c2nc(N)c(C#N)c(-c3ccc(C(C)(C)C)cc3)c12
cell number change: 30.4% | AC50 [1]: 5.8 µM [falling, single point]

Cc1cc(C(C)(C)C)oc1C(=O)N(CC(=O)NC1CCCC1)c1c(C)cccc1C
cell number change: -75% | AC50 [2]: 16.4 µM [falling, single point] | AC50 [1]: 29.1 µM [falling, single point]

CCCCNC(=O)c1ccc(NC(=O)CC2SC(N3CCCC3)=NC2=O)cc1 (configuration not stated)
cell number change: 2.98% | AC50 [1]: 0.00517 µM [falling, full curve, poor fit]

CCN(Cc1ccccc1)C(=O)c1c[nH]c2ccc(S(=O)(=O)N(C)CCC#N)cc2c1=O
cell number change: 0.245% | AC50 [1]: 0.206 µM [falling, full curve, poor fit]

CC(NC(=O)CSC(=S)N(C)C)C12CC3CC(CC(C3)C1)C2 (configuration not stated)
cell number change: -15.6% | AC50 [1]: 10.3 µM [falling, partial curve]

C/C(=N\NC(=S)NCCc1ccccc1)c1ccc(C#N)cc1
cell number change: 71.3% | AC50 [2]: 29.1 µM [rising, single point] | AC50 [1]: 0.58 µM [rising, single point]

COc1cccc(OCc2cc(C(=O)N(C)Cc3nccn3C)no2)c1
AC50 [1]: 0.13 µM [falling, full curve, poor fit]

O=C(CCOc1ccccc1)Nc1ccc(Cl)c(S(=O)(=O)N2CCOCC2)c1
cell number change: -30.8% | AC50 [2]: 18.4 µM [falling, single point] | AC50 [1]: 2.31 µM [rising, partial curve]

CC(=O)N1CCN(C2c3cccc4cccc(c34)C2NS(=O)(=O)c2ccccc2)CC1 (configuration not stated)
cell number change: 1.01% | AC50 [1]: 2.31 µM [rising, partial curve]

CCOC(=O)c1ccc(NC(=O)CCOc2ccccc2)cc1
cell number change: 109% | AC50 [2]: 16.4 µM [rising, partial curve] | AC50 [1]: 6.51 µM [rising, single point]

CCCCCCN(C(=O)CCCCCN1C(=O)NC(c2ccc(-c3ccccc3)cc2)C(C(=O)OCc2ccccc2)=C1C)C(C(=O)NCCCC)c1ccc(O)cc1 (configuration not stated)
cell number change: -1.46% | AC50 [1]: 1.46 µM [rising, partial curve]

Cc1cc(C)cc(NC(=O)Nc2cc(-c3ccccc3)nn2C)c1
cell number change: -9.29% | AC50 [2]: 0.0058 µM [falling, full curve, poor fit]

Cc1ccc(C)c(Cn2nnc3c(=O)[nH]c(C4CCCN(C(=O)c5cccs5)C4)nc32)c1 (configuration not stated)
cell number change: -4.62%

N#CCCN1CCN(Cc2cc(-c3ccccc3)ccc2O)CC1
cell number change: -23.7% | AC50 [1]: 4.11 µM [falling, full curve, poor fit]

CN(C)CCNC(=O)CNC(=S)N(Cc1ccccc1)Cc1ccccc1F
cell number change: -42.9% | AC50 [2]: 23.1 µM [falling, single point]

OCC[C@H]1C[C@@H](O)[C@H](O)[C@@]2(Cc3ccccc3CCO2)O1
cell number change: -8.74% | AC50 [1]: 29.1 µM [rising, single point]

O=C(CN1C(=O)/C(=C\c2ccccc2Cl)Oc2ccccc21)NCc1cccnc1
cell number change: -41.7% | AC50 [2]: 23.1 µM [falling, single point] | AC50 [1]: 16.4 µM [falling, partial curve]

COC(=O)c1ccc(N2CCN(S(=O)(=O)c3ccc(Br)cc3)CC2)c([N+](=O)[O-])c1
AC50 [2]: 0.731 µM [falling, full curve, poor fit]

O=C(Nc1ccccc1)O[C@@H]1C[C@H]2CCC(=O)N3CC[C@@H](C1)[C@@H]23
cell number change: 4.85% | AC50 [2]: 2.06 µM [rising, partial curve, poor fit]

O=C(c1ccc(F)cc1)n1ccc(-c2cnc(-c3ccccc3)s2)n1
AC50 [2]: 0.731 µM [rising, single point]

CCOC(=O)C1C(c2cccnc2)NC(=O)NC1(O)C(F)(F)F (configuration not stated)
cell number change: -16.8% | AC50 [2]: 0.00731 µM [falling, full curve, poor fit] | AC50 [1]: 3.26 µM [falling, single point]

Cc1ccc(-c2[nH]ncc2CN2CCN(C(=O)c3cccs3)CC2)cc1C
cell number change: -20.8% | AC50 [1]: 0.00461 µM [rising, full curve, poor fit]

CCNC(=O)COC(=O)CNC(=O)c1cc(Cl)cc([N+](=O)[O-])c1
cell number change: 35.8% | AC50 [2]: 29.1 µM [rising, single point] | AC50 [1]: 14.6 µM [rising, partial curve]

O=C(NCc1ccco1)C1CC(c2ccccc2O)=NO1 (configuration not stated)
cell number change: 2.55% | AC50 [1]: 7.31 µM [rising, single point]

Cn1c(=O)c2c([nH]c(=S)n2CCCc2ccccc2)n(C)c1=O
cell number change: -17.5% | AC50 [1]: 29.1 µM [falling, single point]

Cc1ccc(NC(=O)CN(C)C(=O)C2CC(=O)N(Cc3ccccc3)C2)cc1 (configuration not stated)
cell number change: 27.6% | AC50 [1]: 29.1 µM [rising, single point]

COc1cc2ccccc2cc1C(=O)N/N=C/c1cccnc1
cell number change: -5.73%

CC1(C)Cc2c(sc(NC(=O)C(=O)NCC3CCCO3)c2C(=O)O)CO1 (configuration not stated)
cell number change: 8.85% | AC50 [1]: 6.51 µM [falling, single point]

Cc1ccc(/C(O)=C2\C(=O)C(=O)N(C)C2c2ccc(Br)cc2)cc1 (configuration not stated)
cell number change: -4.99% | AC50 [1]: 29.1 µM [rising, single point]

O=C(C[n+]1ccccc1)N/N=C/c1cccs1
cell number change: -7.31% | AC50 [2]: 0.13 µM [falling, full curve, poor fit] | AC50 [1]: 0.291 µM [falling, full curve, poor fit]

COc1ccc(N(CC(=O)Nc2c(C)n(C)n(-c3ccccc3)c2=O)S(=O)(=O)c2ccc(C)cc2)cc1OC
cell number change: 17.1%

CCCNC(=O)c1onc(CSc2ccc(F)cc2)c1C(=O)NCC1CC1
cell number change: 15.7% | AC50 [1]: 4.61 µM [rising, full curve, poor fit]

NC(=O)CCC(NS(=O)(=O)c1ccc(Cl)cc1)C(=O)NCc1ccc(Cl)cc1 (configuration not stated)
cell number change: 10.6% | AC50 [1]: 3.26 µM [rising, partial curve]

COc1ccc(NC(=O)N2CCCc3ccccc32)cc1OC
cell number change: -4.46% | AC50 [1]: 29.1 µM [rising, single point]

COCC(C)NC(=O)Cn1c(SCc2ccccc2)nc2ccccc21 (configuration not stated)
cell number change: 19.2% | AC50 [1]: 0.411 µM [rising, partial curve]

O=C(NC1CCCCC1)N1CCN(C(c2ccccc2)c2ccccc2)CC1
cell number change: 0.892%

CC(C)(C)c1ccc(NC(=O)COC(=O)C2CCCC2)cc1
cell number change: -2.06% | AC50 [1]: 0.58 µM [rising, full curve]

O=C(Nc1ccc(Cl)cc1)NC1CCCc2ccccc21 (configuration not stated)
AC50 [1]: 11.6 µM [falling, partial curve, poor fit]

CC(C)CCNC(=O)CSc1nc2ccsc2c(=O)n1NC(=O)c1ccccc1
cell number change: 10.9% | AC50 [2]: 2.06 µM [rising, partial curve, poor fit] | AC50 [1]: 2.06 µM [rising, partial curve]
